Experimental data taken from paper PMC9925730, “Controlled sequential in situ self-assembly and disassembly of a fluorogenic cisplatin prodrug for cancer theranostics” (Nature Communications, 2023).
Where “and” joins values, the source holds several entries; their conditions need not be identical. Identical values can stand only once. The source gives many values for each of these; only a part stands here.

Amino acid sequences for entries named in this document (tags omitted). Residues count along the entry.
UniProt P19111, 20-533: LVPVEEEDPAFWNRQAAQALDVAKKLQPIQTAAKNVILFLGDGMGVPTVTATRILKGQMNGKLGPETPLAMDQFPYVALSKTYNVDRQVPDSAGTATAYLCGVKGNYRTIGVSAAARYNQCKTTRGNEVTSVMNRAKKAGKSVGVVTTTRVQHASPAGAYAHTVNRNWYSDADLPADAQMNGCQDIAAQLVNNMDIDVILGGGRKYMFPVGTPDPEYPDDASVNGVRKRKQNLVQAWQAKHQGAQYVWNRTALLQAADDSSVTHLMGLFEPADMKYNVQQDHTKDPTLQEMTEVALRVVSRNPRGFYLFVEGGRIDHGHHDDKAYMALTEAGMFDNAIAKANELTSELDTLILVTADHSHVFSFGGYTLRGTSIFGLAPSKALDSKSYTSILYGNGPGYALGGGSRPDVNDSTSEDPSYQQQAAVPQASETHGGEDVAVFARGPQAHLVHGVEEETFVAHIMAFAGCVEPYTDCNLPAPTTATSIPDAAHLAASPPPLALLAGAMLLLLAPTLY

Target: T1, ALP (Bos taurus, UniProt P19111)
T1 construct: Alkaline phosphatase from bovine; purchased Sigma-Aldrich; host or cells: bovine intestinal mucosa (tissue-derived)
Test: Dephosphorylated efficacy of P-CyPt towards varying concentrations of ALP (NIR fluorescence)
Assay type: biochemical

CC1(C)C(/C=C/C2=C3Oc4cc(OP(=O)(O)O)c(Cl)cc4C=C3CCC2)=[N+](CCCNC(=O)[C@@H](Cc2ccccc2)NC(=O)[C@@H](Cc2ccccc2)NC(=O)CCC(=O)[O][Pt]([NH2])([NH2])([OH])([Cl])[Cl])c2ccccc21 [P-CyPt]
Normalized FL intensity (ALP 50 U/L, 20 min, single samples): 5.296 and 5.448 and 5.639
Normalized FL intensity (ALP 50 U/L, 22 min, mean of 3 samples): 5.941
Normalized FL intensity (ALP 50 U/L, 22 min, single samples): 5.783 and 5.883 and 6.157
Normalized FL intensity (ALP 50 U/L, 24 min, mean of 3 samples): 6.413
Normalized FL intensity (ALP 50 U/L, 24 min, single samples): 6.178 and 6.457 and 6.604
Normalized FL intensity (ALP 50 U/L, 26 min, mean of 3 samples): 6.764
Normalized FL intensity (ALP 50 U/L, 26 min, single samples): 6.596 and 6.63 and 7.065
Normalized FL intensity (ALP 50 U/L, 28 min, mean of 3 samples): 7.301
Normalized FL intensity (ALP 50 U/L, 28 min, single samples): 7.048 and 7.33 and 7.526
Normalized FL intensity (ALP 50 U/L, 30 min, mean of 3 samples): 7.742
Normalized FL intensity (ALP 50 U/L, 30 min, single samples): 7.4913 and 7.8 and 7.935
Normalized FL intensity (ALP 100 U/L, 0 min, mean of 3 samples): 0.9638
Normalized FL intensity (ALP 100 U/L, 0 min, single samples): 0.9261 and 0.9435 and 1.022
Normalized FL intensity (ALP 100 U/L, 2 min, mean of 3 samples): 1.793
Normalized FL intensity (ALP 100 U/L, 2 min, single samples): 1.73 and 1.748 and 1.9
Normalized FL intensity (ALP 100 U/L, 4 min, mean of 3 samples): 2.443
Normalized FL intensity (ALP 100 U/L, 4 min, single samples): 2.43 and 2.439 and 2.461
Normalized FL intensity (ALP 100 U/L, 6 min, mean of 3 samples): 3.13
Normalized FL intensity (ALP 100 U/L, 6 min, single samples): 3.1 and 3.113 and 3.178
Normalized FL intensity (ALP 100 U/L, 8 min, mean of 3 samples): 3.943
Normalized FL intensity (ALP 100 U/L, 8 min, single samples): 3.878 and 3.943 and 4.0087
Normalized FL intensity (ALP 100 U/L, 18 min, mean of 3 samples): 6.881
Normalized FL intensity (ALP 100 U/L, 18 min, single samples): 6.761 and 6.813 and 7.07
Normalized FL intensity (ALP 100 U/L, 20 min, mean of 3 samples): 7.472
Normalized FL intensity (ALP 100 U/L, 20 min, single samples): 7.413 and 7.452 and 7.552
Normalized FL intensity (ALP 100 U/L, 22 min, mean of 3 samples): 7.851
Normalized FL intensity (ALP 100 U/L, 22 min, single samples): 7.748 and 7.852 and 7.952
Normalized FL intensity (ALP 100 U/L, 24 min, mean of 3 samples): 8.357
Normalized FL intensity (ALP 100 U/L, 24 min, single samples): 8.326 and 8.343 and 8.4
Normalized FL intensity (ALP 100 U/L, 26 min, mean of 3 samples): 8.425
Normalized FL intensity (ALP 100 U/L, 26 min, single samples): 8.326 and 8.461 and 8.487
Normalized FL intensity (ALP 100 U/L, 28 min, mean of 3 samples): 8.4
Normalized FL intensity (ALP 100 U/L, 28 min, single samples): 8.374 and 8.383 and 8.443
Normalized FL intensity (ALP 100 U/L, 30 min, mean of 3 samples): 8.367
Normalized FL intensity (ALP 100 U/L, 30 min, single samples): 8.343 and 8.352 and 8.404
Normalized FL intensity (ALP 200 U/L, 0 min, mean of 3 samples): 0.9493
Normalized FL intensity (ALP 200 U/L, 0 min, single samples): 0.9609 and 0.8826 and 1.004
Normalized FL intensity (ALP 200 U/L, 2 min, mean of 3 samples): 1.858
Normalized FL intensity (ALP 200 U/L, 2 min, single samples): 1.852 and 1.83 and 1.8913
Normalized FL intensity (ALP 200 U/L, 4 min, mean of 3 samples): 2.71
Normalized FL intensity (ALP 200 U/L, 4 min, single samples): 2.735 and 2.643 and 2.752
Normalized FL intensity (ALP 200 U/L, 6 min, mean of 3 samples): 3.807
Normalized FL intensity (ALP 200 U/L, 6 min, single samples): 3.596 and 3.774 and 4.052
Normalized FL intensity (ALP 200 U/L, 8 min, mean of 3 samples): 4.717
Normalized FL intensity (ALP 200 U/L, 8 min, single samples): 4.474 and 4.73 and 4.948
Normalized FL intensity (ALP 200 U/L, 16 min, mean of 3 samples): 7.213
Normalized FL intensity (ALP 200 U/L, 16 min, single samples): 7.083 and 7.004 and 7.552
Normalized FL intensity (ALP 200 U/L, 18 min, mean of 3 samples): 7.878
Normalized FL intensity (ALP 200 U/L, 18 min, single samples): 7.813 and 7.852 and 7.97
Normalized FL intensity (ALP 200 U/L, 20 min, mean of 3 samples): 8.21
Normalized FL intensity (ALP 200 U/L, 20 min, single samples): 7.952 and 8.213 and 8.465
Normalized FL intensity (ALP 200 U/L, 22 min, mean of 3 samples): 8.501
Normalized FL intensity (ALP 200 U/L, 22 min, single samples): 8.452 and 8.648 and 8.404
Normalized FL intensity (ALP 200 U/L, 24 min, mean of 3 samples): 8.623
Normalized FL intensity (ALP 200 U/L, 24 min, single samples): 8.843 and 8.613 and 8.413
Normalized FL intensity (ALP 200 U/L, 26 min, mean of 3 samples): 8.57
Normalized FL intensity (ALP 200 U/L, 26 min, single samples): 8.6913 and 8.6 and 8.417
Normalized FL intensity (ALP 200 U/L, 28 min, mean of 3 samples): 8.629
Normalized FL intensity (ALP 200 U/L, 28 min, single samples): 8.3913 and 8.743 and 8.752
Normalized FL intensity (ALP 200 U/L, 30 min, mean of 3 samples): 8.378
Normalized FL intensity (ALP 200 U/L, 30 min, single samples): 8.4 and 8.296 and 8.439
Normalized FL intensity (ALP 500 U/L, 0 min, mean of 3 samples): 0.9826
Normalized FL intensity (ALP 500 U/L, 0 min, single samples): 0.9391 and 1 and 1.0087
Normalized FL intensity (ALP 500 U/L, 2 min, mean of 3 samples): 1.93
Normalized FL intensity (ALP 500 U/L, 2 min, single samples): 1.896 and 1.926 and 1.97
Normalized FL intensity (ALP 500 U/L, 4 min, mean of 3 samples): 3.083
Normalized FL intensity (ALP 500 U/L, 4 min, single samples): 2.874 and 2.935 and 3.439
Normalized FL intensity (ALP 500 U/L, 6 min, mean of 3 samples): 4.441
Normalized FL intensity (ALP 500 U/L, 6 min, single samples): 4.026 and 4.539 and 4.757
Normalized FL intensity (ALP 500 U/L, 8 min, mean of 3 samples): 5.4029
Normalized FL intensity (ALP 500 U/L, 8 min, single samples): 5.357 and 5.417 and 5.435
Normalized FL intensity (ALP 500 U/L, 16 min, mean of 3 samples): 7.73
Normalized FL intensity (ALP 500 U/L, 16 min, single samples): 7.539 and 7.6 and 8.052
Normalized FL intensity (ALP 500 U/L, 18 min, mean of 3 samples): 8.032
Normalized FL intensity (ALP 500 U/L, 18 min, single samples): 7.974 and 8.065 and 8.057
Normalized FL intensity (ALP 500 U/L, 20 min, mean of 3 samples): 8.168
Normalized FL intensity (ALP 500 U/L, 20 min, single samples): 7.97 and 7.978 and 8.557
Normalized FL intensity (ALP 500 U/L, 22 min, mean of 3 samples): 8.47
Normalized FL intensity (ALP 500 U/L, 22 min, single samples): 8.483 and 8.422 and 8.504
Normalized FL intensity (ALP 500 U/L, 24 min, mean of 3 samples): 8.454
Normalized FL intensity (ALP 500 U/L, 24 min, single samples): 8.43 and 8.426 and 8.504
Normalized FL intensity (ALP 500 U/L, 26 min, mean of 3 samples): 8.468
Normalized FL intensity (ALP 500 U/L, 26 min, single samples): 8.417 and 8.478 and 8.5087
Normalized FL intensity (ALP 500 U/L, 28 min, mean of 3 samples): 8.4942
Normalized FL intensity (ALP 500 U/L, 28 min, single samples): 8.426 and 8.478 and 8.578
Normalized FL intensity (ALP 500 U/L, 30 min, mean of 3 samples): 8.483
Normalized FL intensity (ALP 500 U/L, 30 min, single samples): 8.426 and 8.487 and 8.535
